Test results from the supplement of paper PMC4604168 (melanoma cell lines).
This is one part of the list. Single values are uncertain, as repeats are few or missing.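 Imaging used 1,536-well plates; nuclei positive for cleaved PARP by antibody were divided by total DNA-stained nuclei to yield the apoptosis fraction. Doses for screening kept most cells viable, and cell lines differ markedly in resting and induced cleaved-PARP levels.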

Experiments:
Experiment in all cases: cleaved PARP positive nuclei fraction relative to DMSO control; melanoma cells; higher = more apoptosis
Conditions in all cases: library dose: low library concentration; 72 h
COLO792 = tested on: COLO792
COLO800 = tested on: COLO800
COLO829 = tested on: COLO829
G361 = tested on: G361
IPC-298 = tested on: IPC-298
IST-MEL1 = tested on: IST-MEL1
LB2518-MEL = tested on: LB2518-MEL
LOXIMVI = tested on: LOXIMVI
MEL-HO = tested on: MEL-HO
MZ2-MEL = tested on: MZ2-MEL
MeWo = tested on: MeWo
RPMI7951 = tested on: RPMI7951
RVH-421 = tested on: RVH-421
SkMel28 = tested on: SkMel28
SkMel2 = tested on: SkMel2
SkMel30 = tested on: SkMel30
SkMel5 = tested on: SkMel5
UACC257 = tested on: UACC257
UACC62 = tested on: UACC62

Compound | cleaved PARP positive nuclei fraction (COLO792) [%] | cleaved PARP positive nuclei fraction (COLO800) [%] | cleaved PARP positive nuclei fraction (COLO829) [%] | cleaved PARP positive nuclei fraction (G361) [%] | cleaved PARP positive nuclei fraction (IPC-298) [%] | cleaved PARP positive nuclei fraction (IST-MEL1) [%] | cleaved PARP positive nuclei fraction (LB2518-MEL) [%] | cleaved PARP positive nuclei fraction (LOXIMVI) [%] | cleaved PARP positive nuclei fraction (MEL-HO) [%] | cleaved PARP positive nuclei fraction (MZ2-MEL) [%] | cleaved PARP positive nuclei fraction (MeWo) [%] | cleaved PARP positive nuclei fraction (RPMI7951) [%] | cleaved PARP positive nuclei fraction (RVH-421) [%] | cleaved PARP positive nuclei fraction (SkMel28) [%] | cleaved PARP positive nuclei fraction (SkMel2) [%] | cleaved PARP positive nuclei fraction (SkMel30) [%] | cleaved PARP positive nuclei fraction (SkMel5) [%] | cleaved PARP positive nuclei fraction (UACC257) [%] | cleaved PARP positive nuclei fraction (UACC62) [%]
COCC[n+]1c2c(n(Cc3cnccn3)c1C)C(=O)c1ccccc1C2=O + Cc1cc(N2CCOCC2)cc2[nH]c(-c3c(NC[C@@H](O)c4cccc(Cl)c4)cc[nH]c3=O)nc12 [BMS536924] (first compound 0.0004 µM, partner dose 0.2 µM) | 157 | 306 | 72.7 | 166 | 234 | 88 | 247 | 62 | 137 | 233 | 122 | 147 | 98 | 270 | 227 | 96.7 | 232 | 147 | 109
Cn1nnc2c(C(N)=O)ncn2c1=O [temozolomide] + CO[C@@H]1[C@H](N(C)C(=O)c2ccccc2)C[C@H]2O[C@]1(C)n1c3ccccc3c3c4c(c5c6ccccc6n2c5c31)C(=O)NC4 [Midostaurin] (first compound 2 µM, partner dose 0.08 µM) | 169 | 89.8 | 43.6 | 103 | 31.9 | 208 | 93.3 | 85.8 | 88.7 | 134 | 60.4 | 53.2 | 264 | 44.8 | 80.6 | 69.7 | 67.6 | 78.1 | 80
CC1(C)NC(=O)N(c2ccc([N+](=O)[O-])c(C(F)(F)F)c2)C1=O [nilutamide] + OCCn1cc(-c2cnc3nnn(Cc4ccc5ncccc5c4)c3n2)cn1 [PF04217903] (first compound 1 µM, partner dose 1 µM) | 126 | 90.7 | 24.1 | 91.6 | 60.4 | 198 | 55 | 59.5 | 206 | 62.8 | 94.6 | 80.9 | 125 | 101 | 100 | 55.6 | 129 | 55.6 | 59.5
C=CCNC1=C2C[C@@H](C)C[C@H](OC)[C@H](O)[C@@H](C)/C=C(\C)[C@H](OC(N)=O)[C@@H](OC)/C=C\C=C(/C)C(=O)NC(=CC1=O)C2=O [Tanespimycin] + C=CCn1c(=O)c2cnc(Nc3ccc(N4CCN(C)CC4)cc3)nc2n1-c1cccc(C(C)(C)O)n1 [MK1775] (first compound 0.002 µM, partner dose 0.02 µM) | 121 | 88 | 48.9 | 69.7 | 95.6 | 34.8 | 203 | 64.5 | 75.1 | 75.7 | 92.8 | 151 | 90.6 | 96.7 | 112 | 149 | 124 | 196 | 167
Cn1c(Nc2ccc(C(F)(F)F)cc2)nc2cc(Oc3ccnc(-c4ncc(C(F)(F)F)[nH]4)c3)ccc21 + Cc1cc(N2CCOCC2)cc2[nH]c(-c3c(NC[C@@H](O)c4cccc(Cl)c4)cc[nH]c3=O)nc12 [BMS536924] (first compound 0.08 µM, partner dose 0.2 µM) | 813 | 149 | 31.9 | 349 | 45.7 | 103 | 211 | 59.1 | 81.6 | 294 | 177 | 373 | 167 | 56.2 | 212 | 140 | 161 | 833 | 123
CO[C@@H]1[C@H](N(C)C(=O)c2ccccc2)C[C@H]2O[C@]1(C)n1c3ccccc3c3c4c(c5c6ccccc6n2c5c31)C(=O)NC4 [Midostaurin] + OCCn1cc(-c2cnc3nnn(Cc4ccc5ncccc5c4)c3n2)cn1 [PF04217903] (first compound 0.08 µM, partner dose 1 µM) | 83.2 | 33.3 | 55.9 | 111 | 29.9 | 184 | 53.7 | 67.9 | 128 | 142 | 158 | 308 | 2150 | 56.3 | 122 | 59.6 | 31.4 | 25.5 | 98.8
Cc1ccc(NC(=O)c2cccc(N(C)C)c2)cc1NC(=O)c1ccc(O)cc1 + Cn1cncc1[C@@](N)(c1ccc(Cl)cc1)c1ccc2c(c1)c(-c1cccc(Cl)c1)cc(=O)n2C [tipifarnib] (first compound 2 µM, partner dose 0.01 µM) | 80.3 | 151 | 63 | 105 | 52.3 | 102 | 126 | 39.2 | 96.3 | 70.3 | 43 | 110 | 169 | 104 | 101 | 79.6 | 102 | 133 | 110
C=CCn1c(=O)c2cnc(Nc3ccc(N4CCN(C)CC4)cc3)nc2n1-c1cccc(C(C)(C)O)n1 + O=C(Nc1cccc(Cl)c1)Nc1ncc(CCNc2ncnc3ccsc23)s1 [SNS314] (first compound 0.02 µM, partner dose 0.0008 µM) | 79.4 | 164 | 76 | 93.5 | 63.2 | 65.6 | 114 | 272 | 127 | 119 | 42 | 107 | 244 | 117 | 45.7 | 57.7 | 126 | 138 | 58.6
CC(=O)c1c(C)c2cnc(Nc3ccc(N4CCNCC4)cn3)nc2n(C2CCCC2)c1=O [palbociclib] + O=C(Nc1cccc(Cl)c1)Nc1ncc(CCNc2ncnc3ccsc23)s1 [SNS314] (first compound 0.04 µM, partner dose 0.0008 µM) | 88.4 | 79.2 | 44.1 | 76.8 | 55.4 | 24.9 | 58.9 | 123 | 74.6 | 41.9 | 130 | 61.6 | 264 | 68.2 | 27.7 | 70.4 | 61 | 171 | 109
OCc1c[nH]c2ccccc12 [Indole-3-carbinol] + Cc1cc(N2CCOCC2)cc2[nH]c(-c3c(NC[C@@H](O)c4cccc(Cl)c4)cc[nH]c3=O)nc12 [BMS536924] (first compound 0.8 µM, partner dose 0.2 µM) | 87 | 105 | 85.4 | 127 | 145 | 66.1 | 40 | 141 | 71.2 | 145 | 66.8 | 189 | 131 | 203 | 145 | 116 | 54.9 | 182 | 94.4
C#Cc1cccc(Nc2ncnc3cc(OCCOC)c(OCCOC)cc23)c1 [erlotinib] + COc1cc(Nc2ncc(F)c(Nc3ccc4c(n3)NC(=O)C(C)(C)O4)n2)cc(OC)c1OC [Tamatinib] (first compound 0.8 µM, partner dose 0.4 µM) | 136 | 98 | 121 | 63 | 27.5 | 106 | 99.4 | 119 | 69.4 | 47.1 | 96.7 | 54.1 | 127 | 70.1 | 13 | 68.8 | 197 | 77.9 | 109
C#Cc1cccc(Nc2ncnc3cc(OCCOC)c(OCCOC)cc23)c1 [erlotinib] + C=CCn1c(=O)c2cnc(Nc3ccc(N4CCN(C)CC4)cc3)nc2n1-c1cccc(C(C)(C)O)n1 [MK1775] (first compound 0.8 µM, partner dose 0.02 µM) | 216 | 83.7 | 86.5 | 132 | 65.5 | 102 | 64.9 | 69.2 | 73.7 | 94.7 | 54.1 | 55.3 | 42.7 | 74.4 | 40.5 | 66.6 | 81.1 | 129 | 207
C#Cc1cccc(Nc2ncnc3cc(OCCOC)c(OCCOC)cc23)c1 [erlotinib] + CN(NC(=O)CC(=O)NN(C)C(=S)c1ccccc1)C(=S)c1ccccc1 [STA4783] (first compound 0.8 µM, partner dose 0.006 µM) | 352 | 184 | 343 | 114 | 91.2 | 38.6 | 168 | 72.3 | 429 | 383 | 201 | 50.4 | 53.3 | 51.7 | 30.6 | 62.7 | 137 | 48.4 | 225
C#Cc1cccc(Nc2ncnc3cc(OCCOC)c(OCCOC)cc23)c1 [erlotinib] + O=C(CCCCCCC(=O)Nc1ccccc1)NO [vorinostat] (first compound 0.8 µM, partner dose 0.08 µM) | 173 | 33.9 | 93.6 | 69.8 | 65.6 | 101 | 107 | 229 | 145 | 86 | 34.7 | 129 | 202 | 244 | 200 | 34.8 | 101 | 256 | 216
C[C@]1(c2nc3c(C(N)=O)cccc3[nH]2)CCCN1 [Veliparib] + O=C(CCCCCCC(=O)Nc1ccccc1)NO [vorinostat] (first compound 1.4 µM, partner dose 0.08 µM) | 74.5 | 45.9 | 42.8 | 109 | 90 | 135 | 52 | 82.2 | 156 | 153 | 102 | 140 | 31.9 | 126 | 146 | 346 | 54.6 | 86.8 | 69.2
CC(=O)c1c(C)c2cnc(Nc3ccc(N4CCNCC4)cn3)nc2n(C2CCCC2)c1=O [palbociclib] + COc1cc2c(Oc3ccc4[nH]c(C)cc4c3F)ncnc2cc1OCCCN1CCCC1 [cediranib] (first compound 0.04 µM, partner dose 0.4 µM) | 224 | 66.2 | 45.5 | 96.3 | 49.8 | 37 | 130 | 148 | 141 | 146 | 119 | 164 | 152 | 42.3 | 117 | 72.4 | 302 | 51.9 | 112
C[C@]1(c2nc3c(C(N)=O)cccc3[nH]2)CCCN1 [Veliparib] + OCCn1cc(-c2cnc3nnn(Cc4ccc5ncccc5c4)c3n2)cn1 [PF04217903] (first compound 1.4 µM, partner dose 1 µM) | 90.6 | 67.8 | 102 | 146 | 22.9 | 97.7 | 223 | 172 | 133 | 258 | 101 | 105 | 40.4 | 29.5 | 262 | 70.9 | 122 | 82.1 | 88

Full records from above. Values in the order: cleaved PARP positive nuclei fraction (COLO792) [%]	cleaved PARP positive nuclei fraction (COLO800) [%]	cleaved PARP positive nuclei fraction (COLO829) [%]	cleaved PARP positive nuclei fraction (G361) [%]	cleaved PARP positive nuclei fraction (IPC-298) [%]	cleaved PARP positive nuclei fraction (IST-MEL1) [%]	cleaved PARP positive nuclei fraction (LB2518-MEL) [%]	cleaved PARP positive nuclei fraction (LOXIMVI) [%]	cleaved PARP positive nuclei fraction (MEL-HO) [%]	cleaved PARP positive nuclei fraction (MZ2-MEL) [%]	cleaved PARP positive nuclei fraction (MeWo) [%]	cleaved PARP positive nuclei fraction (RPMI7951) [%]	cleaved PARP positive nuclei fraction (RVH-421) [%]	cleaved PARP positive nuclei fraction (SkMel28) [%]	cleaved PARP positive nuclei fraction (SkMel2) [%]	cleaved PARP positive nuclei fraction (SkMel30) [%]	cleaved PARP positive nuclei fraction (SkMel5) [%]	cleaved PARP positive nuclei fraction (UACC257) [%]	cleaved PARP positive nuclei fraction (UACC62) [%]
Cc1ccc(NC(=O)c2cccc(N(C)C)c2)cc1NC(=O)c1ccc(O)cc1 + Cn1cncc1[C@@](N)(c1ccc(Cl)cc1)c1ccc2c(c1)c(-c1cccc(Cl)c1)cc(=O)n2C [tipifarnib] (first compound 2 µM, partner dose 0.01 µM) is listed as 80.3	151	63	105	52.3	102	126	39.2	96.3	70.3	43	110	169	104	101	79.6	102	133	110
Cn1c(Nc2ccc(C(F)(F)F)cc2)nc2cc(Oc3ccnc(-c4ncc(C(F)(F)F)[nH]4)c3)ccc21 + Cc1cc(N2CCOCC2)cc2[nH]c(-c3c(NC[C@@H](O)c4cccc(Cl)c4)cc[nH]c3=O)nc12 [BMS536924] (first compound 0.08 µM, partner dose 0.2 µM) is listed as 813	149	31.9	349	45.7	103	211	59.1	81.6	294	177	373	167	56.2	212	140	161	833	123
